Results: patent publication US20070280944A1, “Use of 5,10-Methylene Tetrahydrofolate for the Treatment of Cancer” (priority 2004, published 2007)
Some results were stated once for a whole list of compounds, not compound by compound.

Key:
Balb/c mice = conditions: normal Balb/c mice, 7 consecutive days i.p. dosing
Protocol: Balb/c mice were obtained from Charles River Laboratories.
5-Fluorouracil (5-FU) was obtained from Calbiochem. Leucovorin (folinic acid) was obtained from Sigma-Aldrich.
All drugs were intraperitoneally injected (100 microliters/mouse, 0.6mg/mouse/drug) using a 28 gauge insulin needle/syringe. 200-250 microliters blood/mouse was collected by retro-orbital puncture into EDTA-coated microtainer tubes (VWR International) on days 0 (prior to drug injection), 8, and 13. Complete blood counts plus blood differentials were determined by Labcorp Corporation of America using a Bayer Advia 120 Hematology analyzer.

[1] = system: human colon carcinoma HT-29; experiment: HT-29 Colorectal Carcinoma Nude Mouse Study #2 (doubling time, tumor volume, survival); type: in vivo, Nude (nu/nu) mice; conditions: prior to study completion (38 days from treatment initiation)
Excerpt: Nude (nu/nu) mice were obtained from Charles River Laboratories.
5-Fluorouracil (5-FU) was obtained from Calbiochem. Leucovorin (leucovorin) and oxaliplatin were obtained from Sigma-Aldrich. 5,10 methylenetetrahydofolate was manufactured by Eprova AG. A monoclonal antibody to vascular endothelial growth factor (anti-VEGF) was either obtained from R&D Systems (clone 26503 recognizing the human VEGF isoform 165) or Genentech (Avastin).
Finally, cells were resuspended at 1×10^7 cells/ml in PBS. […] All drugs were dosed daily (0.6 mg/mouse/drug) for seven consecutive days with the exception of anti-VEGF, dosed twice (100 micrograms/mouse) on days 1 and 7. In addition, 5,10-CH2-THFA or leucovorin were injected 20 minutes prior to 5-FU injection. Tumor sizes were measured every 2 to 3 days using calipers.
Statistical analysis of tumor and blood data was performed using GraphPad Prism scientific software. Bonferonni's T test was used to compare tumor sizes between multiple groups. The Logrank test was used to determine statistical differences between group survival curves. In some cases, in which only two groups were compared, Student's T test was used to determine the significance between group measurements.

O=c1[nH]cc(F)c(=O)[nH]1 [5-FU, 5-fluorouracil]
time from initiation of drug treatment by which all mice had died (Balb/c mice): ≤ 12 days
mice still alive (survival) [1]: ≤ 50%
